PubChem BioAssay AID1259425 | University of Nebraska Medical Center – 2018
Here is an unselected part of about 14,000 deposited reagents. Further read-outs or replicates are left out here. No sequences are given here. Not given: the time to read-out.

Purpose: 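Find knockdowns that reproduce the gene expression pattern seen when KSR1 is lost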 (primary screen)
Cell system: HCT116 human colon cancer cells
Reagent: siRNA pool against human genes, 50 nM siRNA
Detection: 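After 50 nM siRNA pool, branched-DNA assay measures six marker transcripts per well, minus blank, normalised to the geometric mean of two housekeeping transcripts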
Direction: BNIP3L mRNA: higher = more BNIP3L transcript after knockdown

Target gene | BNIP3L mRNA, set 1
ANKRA2 | 0.0802
ZNF282 | 0.128
NR2C2 | 0.134
C2CD3 | 0.133
POMGNT1 | 0.0723
CDC5L | 0.0833
RIPK2 | 0.102
CLSTN3 | 0.0842
SPIRE1 | 0.187
TP53TG5 | 0.0759
SH3GLB2 | 0.147
SHOX2 | 0.0553
DEFB4A | 0.106
NPAS2 | 0.145
PRODH | 0.101
NAA11 | 0.134
AGPAT4-IT1 | 0.199
THNSL2 | 0.235
CAMLG | 0.174
PANK4 | 0.15
MALT1 | 0.189
WWC3 | 0.0977
MEN1 | 0.0934
KCNG2 | 0.106
MTX2 | 0.0365
DCAF7 | 0.186
TRAIP | 0.0658
GREB1L | 0.125
MRPS35 | 0.0865
TMEM117 | 0.309
HLA-DOB | 0.0645
YTHDF1 | 0.0863
HRC | 0.116
FGL1 | 0.0881
UBE2M | 0.0876
HTRA1 | 0.117
PTBP1 | 0.0993
TPBG | 0.0728
SLC25A13 | 0.175
DDX25 | 0.15
SDC4 | 0.0982
MAN1C1 | 0.168
PTPRH | 0.139
ANKRD40CL | 0.297
ESPN | 0.321
MLANA | 0.0759
RGL3 | 0.135
CYP2S1 | 0.101
GNAQ | 0.0577
SDK2 | 0.121
TNNC2 | 0.116
CLIP4 | 0.123
IL11 | 0.119
BCL2 | 0.187
POP1 | 0.166
CFHR1 | 0.125
SPSB2 | 0.185
KCNN4 | 0.0945
HSPA1A | 0.0907
MAGOHB | 0.122
ZNF496 | 0.17
CYP4F11 | 0.0983
PLEKHA4 | 0.312
